Experimental data as given in PubChem BioAssay AID624297 (National Center for Advancing Translational Sciences (NCATS), 2012).
“And” between values parts separate entries of the source, which are not always exact repeats. Identical values can stand only once. The campaign covered roughly 340,000 compounds. About 6,200 (1.8%) were called active. The shares of active, inactive and inconclusive entries below differ from those in the screen. Calls follow the shape of the dose curve; as a rule, active = well fitted activation curve with a large enough effect; inconclusive = small, poorly fitted or top-dose-only effect; inactive = no such curve, though single readings can be large or run the other way. Potencies of inconclusive entries are doubtful fits and often do not repeat.

Experiment: A quantitative high throughput screen for small molecules that induce DNA re-replication in SW480 colon adenocarcinoma cells. Also: nearly all actives have a fitted effect of over 55% in size. As to re-replication activation: % of control where 0% means no effect.
Conditions: Hoechst DNA content imaging, 48 h; re-replication activation: at 46.1 µM (top of the series)
Outline: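 First, 250 cells per well were seeded. Next, compound or vehicle (23 nL) was pinned in, plates sat 48 hr at 37 C. Finally Hoechst was added for 40 min before fluorescence scanning.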
Potency is read from the fitted curve at half-maximal effect.

Compound	Potency	re-replication activation
CCOc1ccc2[nH]c3c(N4CCc5ccccc5C4)ncnc3c2c1	inconclusive: 29.1 µM [activator, single point]	
C(=N/Nc1cc(N2CCOCC2)nc(N2CCOCC2)n1)/c1ccccc1	active: 5.8 µM	
NS(=O)(=O)c1ccc(O)c(NC(=O)c2ccc([N+](=O)[O-])cc2)c1	inconclusive: 1.16 µM [activator, single point]	
Clc1ccc(-c2nnc3n2-c2ccccc2SC3)cc1	inconclusive: 6.51 µM [activator, partial curve, poor fit]	
COCCN1Cc2cccc(C(=O)Nc3ccc(C)cc3)c2C1=O		inactive: 3.8%
COc1ccc(CNCc2ccccc2C(F)(F)F)cc1	inconclusive: 20.6 µM [activator, single point]	
CC(C)Cc1nc2oc3c(NCC4CCCO4)ncnc3c2c2c1CCC2 (stereo not drawn)		inactive: -3.73%
COc1ccc(CCN2CC(C(=O)N3CCCCCC3)CCC2=O)cc1 (stereo not drawn)		inactive: -3.23%
CC1CN(C(=O)c2cc3cc(Cl)ccc3[nH]2)CC(C)O1 (stereo not drawn)	inconclusive: 9.2 µM [activator, partial curve, poor fit]	
CCc1c(C)c2cc(Cl)c(O)c(CN3CCCC3)c2oc1=O	active: 20.6 µM	
CC(C)(C)C(=O)Cn1c(=N)n(Cc2ccccc2Cl)c2ccccc21	inconclusive: 29.1 µM [activator, single point]	
Cc1ccc(-c2cc(-c3ccccc3C)[nH]n2)c(O)c1	inconclusive: 23.1 µM [activator, partial curve, poor fit]	
Cc1nc2ccccc2c(N)c1C(=O)/C=C/c1ccccc1	inconclusive: 25.9 µM [activator, single point]	
Cc1noc(C(=O)Nc2cccnc2)c1Cl		inactive: -10.7%
Cc1ccc(S(=O)(=O)NCC2(c3ccccc3)CCN(C)CC2)cc1	inconclusive: 4.61 µM [activator, partial curve, poor fit]	
O=C(N/N=C/c1c[nH]c2ccccc12)C1COc2ccccc2O1 (stereo not drawn)	inconclusive: 14.6 µM [activator, single point]	
O=[N+]([O-])c1ccc(NS(=O)(=O)c2ccccc2)c(Cl)c1	inconclusive: 20.6 µM [activator, single point]	
CCOC(=O)N1CCC(NC(=O)Cn2ncc3ccccc32)CC1	inconclusive: 29.1 µM [activator, single point]	
CC(Oc1ccc(F)cc1)C(=O)Nc1cc(S(=O)(=O)N2CCOCC2)ccc1N1CCCCC1 (stereo not drawn)		inactive: -313%
COc1ccc(C(=O)N/C(=C\c2cn(C)c3ccccc23)C(=O)NCCCN2CCOCC2)cc1	inconclusive: 6.51 µM [activator, single point]	
Cc1ccc(C(=O)CCS(=O)(=O)c2ccc(Br)cc2)cc1	inconclusive: 29.1 µM [activator, single point]	
Cc1nc(-c2ccccc2)sc1-c1ccn[nH]1		inactive: -27.6%

Compound	Potency	re-replication activation
Cc1ccc(S(=O)(=O)Nc2ccc(NC(=O)Nc3cccc(C(F)(F)F)c3)cc2)cc1	inconclusive: 20.6 µM [activator, single point]	
CC1=CC(=C2C(=O)c3ccccc3C2=O)C=C(C)O1		inactive: 10.4%
CCN(CC)c1ccc(/C=N\NC(=O)c2cccc3cc[nH]c23)cc1	active: 23.1 µM	
OCCC1CN(Cc2cccc3nonc23)CCN1C1CCCCC1 (stereo not drawn)	inconclusive: 20 µM [activator, partial curve, poor fit]	
Cc1cccc(NC(=O)CSc2nnc3ccc(-c4ccccn4)nn23)c1	inconclusive: 14.6 µM [activator, partial curve, poor fit]	
Cc1cccc(Oc2nc3ccccn3c(=O)c2/C=C(\C#N)C(=O)NC2CCS(=O)(=O)C2)c1C (stereo not drawn)	inconclusive: 20.6 µM [activator, partial curve, poor fit]	
CN1CCN(c2ccc(C(=O)c3ccc(Br)cc3)cc2[N+](=O)[O-])CC1	inconclusive: 0.291 µM [activator, full curve, poor fit]	
C=C(CC)C(=O)c1ccc(OCC(=O)O)c(Cl)c1Cl	inconclusive: 11.9 µM [activator, single point] and inconclusive: 29.1 µM [activator, single point]	
Cc1ccc(-c2ccc(=O)n(Cc3cccc(Br)c3)n2)cc1	inconclusive: 23.1 µM [activator, single point]	
Cc1oc2c(F)c(F)c(F)c(F)c2c1S(=O)(=O)Nc1cccc(C(F)(F)F)c1	inconclusive: 32.6 µM [activator, partial curve, poor fit]	
CC(=O)N1CCN(c2ccccc2NC(=O)COc2ccccc2C)CC1	inconclusive: 18.4 µM [activator, partial curve, poor fit]	
Cc1cccc(C(C)C)c1NC(=O)CN(C)Cc1cccc(F)c1	inconclusive: 16.4 µM [activator, partial curve, poor fit]	
CCCCOC(=O)C1C2CCC(O2)C1C(=O)OCC (stereo not drawn)		inactive: -1.03%
CNS(=O)(=O)c1ccc2ccccc2c1	inconclusive: 29.1 µM [activator, single point]	
Cc1cc(C)c(C)c(OCCCCn2cnc3ccccc3c2=O)c1		inactive: 12.1%
CCCCCCC(=O)Nc1nc(C)c(-c2csc(Nc3ccc(Cl)cc3)n2)s1	inconclusive: 6.51 µM [activator, single point]	
COc1cccc(Cn2c(N)c(C#N)c3nc4ccccc4nc32)c1OC	inconclusive: 9.2 µM [activator, partial curve, poor fit]	
NC(CCC(=O)NC(CS)C(=O)NCC(=O)O)C(=O)O (stereo not drawn)	inconclusive: 20.6 µM [activator, single point]	
COc1cc(C(=O)N2CCC(C(N)=O)CC2)ccc1OCc1c(C)noc1C		inactive: -19.9%
O=C(COc1ccc2ccccc2c1Br)Nc1ncn[nH]1	inconclusive: 35.5 µM [activator, single point]	
Cc1cc2nc(-c3ccccc3O)[nH]c2cc1C	inconclusive: 18.4 µM [activator, partial curve, poor fit]	
